Source: US20200247761A1, “SULFONAMIDE OR AMIDE COMPOUNDS, COMPOSITIONS AND METHODS FOR THE PROPHYLAXIS AND/OR TREATMENT OF AUTOIMMUNE, INFLAMMATION OR INFECTION RELATED DISORDERS” (TAIWANJ PHARMACEUTICALS CO., LTD, priority 2017, published 2020)
Some results were stated once for a whole list of compounds, not compound by compound. Some compounds share one range, which may span the group rather than tell each member.

Tested on: RAW264.7 cells
Assay: Cell viability (MTT) of RAW264.7 cells
Format: cell-based
Details: Table 2, 10 μM
Experimental: RAW264.7 cells (1.6×10^5 cells/well) or HEK 293 cells (2.5-5.0×10^4 cells/well) were seeded in 96-well plate overnight and treated with different compounds for 16-24 hours. Cells' growth were determined by MTT-based colorimetric assays. Viability of the test cells treated with vehicle (0.5% DMSO) only was defined as 100% viable. Survival of cells after treatment with DETDs was calculated using the following formula: viable cell number (%)=OD570 (treated cell culture)/OD570 (vehicle control)×100.
The cell viability assay was performed by the MTT method, in which cells were incubated with 45 μl of 5 mg/ml MTT for 1 hour at 37° C., and 150 μl of DMSO was added at the end of culture to dissolve the crystals. The signals of individual samples in 96-well plates were detected at O.D.570 nm with a Molecular Devices SpectraMax i3 Imaging Cytometer. Cell viability was expressed in percentage of viable LPS-stimulated cells.

C=CC(=O)N1CCCc2cccc(S(=O)(=O)Nc3ccc(F)cc3Cl)c21 [Compound 12]
cell viability: 25-70%

C=CC(=O)N1CCCc2cccc(S(=O)(=O)Nc3ccc(F)cc3F)c21 [Compound 15]
cell viability: 25-70%

C=CC(=O)N(c1ccc(F)cc1Cl)S(=O)(=O)c1ccccc1 [Compound 19]
cell viability: 25-70%

C=CC(=O)N(c1ccc(F)cc1Cl)S(=O)(=O)c1ccccc1C(=O)OC [Compound 24]
cell viability: 25-70%

C=CC(=O)N(c1ccc(F)cc1Cl)S(=O)(=O)c1ccccc1S(C)(=O)=O [Compound 32]
cell viability: 25-70%

C=CC(=O)N(c1ccc(F)cc1Cl)S(=O)(=O)c1c(C)noc1C [Compound 34]
cell viability: 25-70%

C=CC(=O)N(c1ccc(F)cc1Cl)S(=O)(=O)N1CCOC1=O [Compound 38]
cell viability: 25-70%

C=CC(=O)N(c1ccc(F)cc1Cl)S(=O)(=O)c1c(C)oc(C)c1C(=O)OC [Compound 42]
cell viability: 25-70%

C=CC(=O)c1ccccc1S(=O)(=O)N(C)c1ccccc1 [Compound 70]
cell viability: 25-70%
